According to the supplement of paper PMC10849652:
The list shows a part of the results.

Sequences of proteins named here, by UniProt entry; tags and fusion partners are left off. A change or cut given only in a name is not applied to a line headed by its entry.
UniProt Q15811: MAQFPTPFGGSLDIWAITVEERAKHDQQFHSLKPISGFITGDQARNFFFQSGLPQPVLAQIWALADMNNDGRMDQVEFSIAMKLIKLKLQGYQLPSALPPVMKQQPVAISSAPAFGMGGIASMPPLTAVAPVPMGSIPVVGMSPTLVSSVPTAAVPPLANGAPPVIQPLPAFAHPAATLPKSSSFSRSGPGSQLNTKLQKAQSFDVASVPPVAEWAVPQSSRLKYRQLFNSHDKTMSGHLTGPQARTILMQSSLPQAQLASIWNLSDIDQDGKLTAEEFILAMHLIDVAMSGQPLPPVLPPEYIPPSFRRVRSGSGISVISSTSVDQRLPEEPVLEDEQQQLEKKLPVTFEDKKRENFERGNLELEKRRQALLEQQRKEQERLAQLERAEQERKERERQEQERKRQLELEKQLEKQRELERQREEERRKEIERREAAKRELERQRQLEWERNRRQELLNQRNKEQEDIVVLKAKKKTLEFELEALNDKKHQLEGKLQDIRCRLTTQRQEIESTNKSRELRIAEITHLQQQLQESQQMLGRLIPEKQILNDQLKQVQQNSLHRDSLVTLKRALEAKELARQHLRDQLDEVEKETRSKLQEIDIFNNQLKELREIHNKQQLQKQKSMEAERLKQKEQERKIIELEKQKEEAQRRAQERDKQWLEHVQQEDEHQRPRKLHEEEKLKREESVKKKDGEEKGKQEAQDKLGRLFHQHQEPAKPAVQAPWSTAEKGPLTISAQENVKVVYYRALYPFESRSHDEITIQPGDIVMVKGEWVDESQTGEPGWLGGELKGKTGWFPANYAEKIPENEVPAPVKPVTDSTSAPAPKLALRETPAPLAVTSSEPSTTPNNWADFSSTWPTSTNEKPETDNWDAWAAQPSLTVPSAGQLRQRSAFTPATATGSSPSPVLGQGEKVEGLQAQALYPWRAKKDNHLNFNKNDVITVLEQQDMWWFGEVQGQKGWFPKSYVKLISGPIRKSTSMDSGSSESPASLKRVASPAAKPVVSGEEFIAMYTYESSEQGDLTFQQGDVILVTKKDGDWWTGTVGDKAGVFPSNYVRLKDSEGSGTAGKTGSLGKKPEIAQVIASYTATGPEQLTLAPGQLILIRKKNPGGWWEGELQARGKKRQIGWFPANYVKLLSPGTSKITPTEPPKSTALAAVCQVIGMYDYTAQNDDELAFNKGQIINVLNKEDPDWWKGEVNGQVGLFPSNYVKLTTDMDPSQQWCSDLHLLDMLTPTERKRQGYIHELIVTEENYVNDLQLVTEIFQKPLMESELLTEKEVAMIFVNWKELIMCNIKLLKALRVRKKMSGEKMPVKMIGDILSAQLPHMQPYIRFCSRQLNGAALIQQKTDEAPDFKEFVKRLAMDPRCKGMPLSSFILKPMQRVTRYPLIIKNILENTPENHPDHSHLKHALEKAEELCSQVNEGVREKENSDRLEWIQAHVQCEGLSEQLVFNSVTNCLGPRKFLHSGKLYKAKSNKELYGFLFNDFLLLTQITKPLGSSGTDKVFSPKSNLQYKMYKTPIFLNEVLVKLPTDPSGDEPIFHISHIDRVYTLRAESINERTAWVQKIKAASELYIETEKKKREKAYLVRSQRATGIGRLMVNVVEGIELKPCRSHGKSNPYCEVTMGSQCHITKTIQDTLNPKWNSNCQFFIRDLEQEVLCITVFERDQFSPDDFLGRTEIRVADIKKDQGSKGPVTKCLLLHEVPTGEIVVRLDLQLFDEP
UniProt P05412, whole entry, looked up: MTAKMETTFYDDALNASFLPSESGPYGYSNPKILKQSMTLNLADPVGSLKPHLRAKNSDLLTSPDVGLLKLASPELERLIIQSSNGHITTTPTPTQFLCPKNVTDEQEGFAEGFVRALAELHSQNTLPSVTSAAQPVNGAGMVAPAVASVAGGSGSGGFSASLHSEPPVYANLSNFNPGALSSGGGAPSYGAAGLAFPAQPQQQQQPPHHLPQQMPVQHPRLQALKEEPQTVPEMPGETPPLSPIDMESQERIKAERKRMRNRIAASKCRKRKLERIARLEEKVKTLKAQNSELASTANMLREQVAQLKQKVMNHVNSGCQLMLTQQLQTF
UniProt P0C870: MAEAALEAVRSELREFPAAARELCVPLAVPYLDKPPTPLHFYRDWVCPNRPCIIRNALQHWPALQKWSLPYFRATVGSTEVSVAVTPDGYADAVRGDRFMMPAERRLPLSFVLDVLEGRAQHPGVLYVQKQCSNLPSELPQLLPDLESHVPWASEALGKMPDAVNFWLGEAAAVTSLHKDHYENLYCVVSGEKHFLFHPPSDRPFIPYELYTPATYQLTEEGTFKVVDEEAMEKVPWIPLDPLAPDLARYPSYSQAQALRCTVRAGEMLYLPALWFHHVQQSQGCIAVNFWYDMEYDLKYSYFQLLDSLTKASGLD
UniProt Q9BXK1: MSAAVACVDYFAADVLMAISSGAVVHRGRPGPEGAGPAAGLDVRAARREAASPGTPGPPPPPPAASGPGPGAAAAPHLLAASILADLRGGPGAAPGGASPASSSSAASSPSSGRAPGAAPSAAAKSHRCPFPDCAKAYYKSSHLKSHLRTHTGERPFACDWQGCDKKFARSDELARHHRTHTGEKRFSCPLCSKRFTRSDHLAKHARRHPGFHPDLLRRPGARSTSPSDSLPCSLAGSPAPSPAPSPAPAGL
UniProt O95279: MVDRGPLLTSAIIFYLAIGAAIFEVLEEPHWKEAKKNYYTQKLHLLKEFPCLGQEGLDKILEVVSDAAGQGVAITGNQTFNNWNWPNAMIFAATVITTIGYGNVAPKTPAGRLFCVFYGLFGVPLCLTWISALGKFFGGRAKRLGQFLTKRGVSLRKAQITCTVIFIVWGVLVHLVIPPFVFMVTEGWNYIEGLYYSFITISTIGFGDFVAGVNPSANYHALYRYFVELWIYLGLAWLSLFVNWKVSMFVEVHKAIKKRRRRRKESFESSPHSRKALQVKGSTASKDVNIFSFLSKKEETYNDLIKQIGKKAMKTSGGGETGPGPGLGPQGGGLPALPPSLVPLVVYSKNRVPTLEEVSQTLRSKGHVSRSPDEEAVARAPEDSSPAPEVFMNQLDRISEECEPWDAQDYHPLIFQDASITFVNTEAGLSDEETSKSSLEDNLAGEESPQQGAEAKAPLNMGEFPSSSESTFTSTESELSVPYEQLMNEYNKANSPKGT
UniProt Q8N4N3: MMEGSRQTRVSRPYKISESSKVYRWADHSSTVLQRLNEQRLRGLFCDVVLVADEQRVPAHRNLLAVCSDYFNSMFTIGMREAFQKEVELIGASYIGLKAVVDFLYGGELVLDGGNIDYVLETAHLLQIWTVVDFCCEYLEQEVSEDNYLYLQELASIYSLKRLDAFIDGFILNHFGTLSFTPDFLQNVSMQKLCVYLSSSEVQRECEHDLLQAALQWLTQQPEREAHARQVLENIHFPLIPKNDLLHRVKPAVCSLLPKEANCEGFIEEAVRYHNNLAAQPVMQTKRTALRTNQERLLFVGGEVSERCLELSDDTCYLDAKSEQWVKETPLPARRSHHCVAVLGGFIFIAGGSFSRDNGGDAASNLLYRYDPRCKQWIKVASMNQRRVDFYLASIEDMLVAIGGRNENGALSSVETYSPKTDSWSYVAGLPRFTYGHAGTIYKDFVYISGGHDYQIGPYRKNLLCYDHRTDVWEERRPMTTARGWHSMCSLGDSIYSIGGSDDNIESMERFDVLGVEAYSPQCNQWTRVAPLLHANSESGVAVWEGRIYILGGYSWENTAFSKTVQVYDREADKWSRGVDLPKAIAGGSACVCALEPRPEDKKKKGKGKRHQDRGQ
UniProt O43731: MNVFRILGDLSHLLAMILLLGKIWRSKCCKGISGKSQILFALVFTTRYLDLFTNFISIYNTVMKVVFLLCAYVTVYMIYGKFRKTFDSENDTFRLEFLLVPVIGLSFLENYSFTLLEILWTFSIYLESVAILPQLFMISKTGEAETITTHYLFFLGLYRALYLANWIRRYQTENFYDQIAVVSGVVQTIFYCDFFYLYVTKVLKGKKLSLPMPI
UniProt P01591, whole entry, looked up: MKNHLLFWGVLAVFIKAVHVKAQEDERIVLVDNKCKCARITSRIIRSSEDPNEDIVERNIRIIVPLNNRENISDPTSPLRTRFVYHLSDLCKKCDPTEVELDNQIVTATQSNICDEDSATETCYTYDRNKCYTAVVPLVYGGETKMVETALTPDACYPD
UniProt Q15053: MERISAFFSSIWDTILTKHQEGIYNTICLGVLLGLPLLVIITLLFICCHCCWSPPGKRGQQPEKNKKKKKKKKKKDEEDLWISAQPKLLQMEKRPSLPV
UniProt Q2M2Z5: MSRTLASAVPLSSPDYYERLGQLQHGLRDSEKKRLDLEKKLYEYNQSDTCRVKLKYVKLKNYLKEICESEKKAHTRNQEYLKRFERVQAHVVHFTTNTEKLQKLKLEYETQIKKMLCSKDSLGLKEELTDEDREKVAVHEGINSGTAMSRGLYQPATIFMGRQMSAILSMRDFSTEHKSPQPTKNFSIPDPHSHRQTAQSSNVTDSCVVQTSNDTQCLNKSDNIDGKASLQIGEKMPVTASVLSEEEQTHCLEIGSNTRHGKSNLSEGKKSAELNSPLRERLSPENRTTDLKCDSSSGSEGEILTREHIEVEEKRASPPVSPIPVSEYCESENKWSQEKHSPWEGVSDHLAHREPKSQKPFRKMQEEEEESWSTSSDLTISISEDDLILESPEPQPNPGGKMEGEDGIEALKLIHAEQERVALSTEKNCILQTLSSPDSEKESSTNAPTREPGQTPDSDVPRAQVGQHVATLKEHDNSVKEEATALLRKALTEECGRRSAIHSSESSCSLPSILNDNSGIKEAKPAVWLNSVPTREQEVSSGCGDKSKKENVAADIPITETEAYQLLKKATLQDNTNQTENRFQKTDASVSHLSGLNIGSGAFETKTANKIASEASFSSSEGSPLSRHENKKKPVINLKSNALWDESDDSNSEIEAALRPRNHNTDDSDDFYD
UniProt Q9NZM3: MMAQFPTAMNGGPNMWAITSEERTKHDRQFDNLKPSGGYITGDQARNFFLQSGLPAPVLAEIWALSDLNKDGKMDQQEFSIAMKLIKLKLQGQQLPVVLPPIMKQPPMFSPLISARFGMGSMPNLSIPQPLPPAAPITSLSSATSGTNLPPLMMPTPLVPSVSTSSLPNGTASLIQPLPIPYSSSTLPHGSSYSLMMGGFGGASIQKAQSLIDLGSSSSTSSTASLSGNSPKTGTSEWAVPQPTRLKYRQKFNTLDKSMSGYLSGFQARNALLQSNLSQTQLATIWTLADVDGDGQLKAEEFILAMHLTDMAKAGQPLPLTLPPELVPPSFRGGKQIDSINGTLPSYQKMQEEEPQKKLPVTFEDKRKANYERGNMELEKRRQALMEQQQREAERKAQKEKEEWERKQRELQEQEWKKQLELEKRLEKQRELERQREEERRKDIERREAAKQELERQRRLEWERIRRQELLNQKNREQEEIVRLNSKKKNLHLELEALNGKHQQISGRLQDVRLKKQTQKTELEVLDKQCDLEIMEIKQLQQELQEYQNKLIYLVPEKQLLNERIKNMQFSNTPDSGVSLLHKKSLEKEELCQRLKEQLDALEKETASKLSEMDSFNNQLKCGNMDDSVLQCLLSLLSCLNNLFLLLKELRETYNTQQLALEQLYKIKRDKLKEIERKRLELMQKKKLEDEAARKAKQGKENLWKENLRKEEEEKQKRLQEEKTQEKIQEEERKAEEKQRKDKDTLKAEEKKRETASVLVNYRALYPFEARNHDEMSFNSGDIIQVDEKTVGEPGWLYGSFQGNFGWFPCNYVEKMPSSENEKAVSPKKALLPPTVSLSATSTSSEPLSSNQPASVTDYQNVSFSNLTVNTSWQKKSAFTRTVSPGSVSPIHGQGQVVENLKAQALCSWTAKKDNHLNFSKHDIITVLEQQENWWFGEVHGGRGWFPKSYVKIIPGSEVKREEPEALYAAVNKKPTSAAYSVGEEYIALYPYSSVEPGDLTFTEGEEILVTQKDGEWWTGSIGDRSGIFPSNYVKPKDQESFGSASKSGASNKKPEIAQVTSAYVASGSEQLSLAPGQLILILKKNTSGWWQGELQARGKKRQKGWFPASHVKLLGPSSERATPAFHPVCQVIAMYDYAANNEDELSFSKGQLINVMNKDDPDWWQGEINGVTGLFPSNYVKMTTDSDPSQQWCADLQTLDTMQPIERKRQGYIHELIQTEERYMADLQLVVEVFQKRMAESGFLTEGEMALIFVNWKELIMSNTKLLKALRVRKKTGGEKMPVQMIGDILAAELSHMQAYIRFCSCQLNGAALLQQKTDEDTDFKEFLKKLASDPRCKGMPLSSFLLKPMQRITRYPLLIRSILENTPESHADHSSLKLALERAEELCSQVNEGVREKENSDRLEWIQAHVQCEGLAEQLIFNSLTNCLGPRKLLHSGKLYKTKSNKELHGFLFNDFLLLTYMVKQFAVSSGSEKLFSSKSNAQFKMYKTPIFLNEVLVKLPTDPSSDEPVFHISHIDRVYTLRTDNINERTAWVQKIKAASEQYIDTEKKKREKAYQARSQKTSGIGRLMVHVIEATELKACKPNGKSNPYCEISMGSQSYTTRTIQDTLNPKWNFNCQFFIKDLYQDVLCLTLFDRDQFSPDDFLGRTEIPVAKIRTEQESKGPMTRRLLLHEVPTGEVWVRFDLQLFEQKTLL

Tests used:
Experiment in all cases: log2 fold change, soluble protein after heating vs DMSO (PISA); higher = thermal stabilisation; K562 cells, 10 uM, 30 min; active = over 0.2 and 3.5 SD of the protein, either way, in both replicates (recomputed)
[1] = compound: CC1=C(C=C(C=C1)NC(=O)C2=CC(=CC=C2)C(C)(C)C#N)NC3=CC4=C(C=C3)N=CN(C4=O)C
Summary of the method: (§1)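 Aliquots of K562 cells (2×10^6 cells/mL) treated with 10 μM compound for 30 min were heated for 3 min over 48°C-58°C. After pooling and extraction in PBS with 0.5% NP-40 at 4°C, soluble protein from a 21,000xg, 90 min spin was quantified by TMTpro 16plex LC-MS/MS with channel sums equalised. Thermal stability is expressed against control samples, from duplicates, as a log2 fold change.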

[2] = compound: CC1=CC=C(C=C1)SC2=C3C=C(SC3=CN=C2)C(=O)N
Summary of the method: as §1

[3] = compound: CC1=NC(=CC=C1)C2=C(N=C(N2)C(C)(C)C)C3=CC4=NC=CN=C4C=C3
Summary of the method: as §1

[4] = compound: CCCS(=O)(=O)Nc1ccc(F)c(C(=O)c2c[nH]c3ncc(Cl)cc23)c1F
Summary of the method: as §1

barasertib = compound: CCN(CCCOc1ccc2c(Nc3cc(CC(=O)Nc4cccc(F)c4)[nH]n3)ncnc2c1)CCOP(=O)(O)O [barasertib]
Summary of the method: as §1

Nexturastat A = compound: CCCCN(Cc1ccc(C(=O)NO)cc1)C(=O)Nc1ccccc1 [Nexturastat A]
Summary of the method: as §1

givinostat = compound: CCN(CC)Cc1ccc2cc(COC(=O)Nc3ccc(C(=O)NO)cc3)ccc2c1 [givinostat]
Summary of the method: as §1

[5] = compound: CCCc1cc(C)[nH]c(=O)c1CNC(=O)c1cc(-c2ccnc(N3CCN(C)CC3)c2)cc2c1cnn2C(C)C
Summary of the method: as §1

[6] = compound: CC1=C(C=C(C=C1)NC(=O)C2=CC(=CC=C2)N(C)C)NC(=O)C3=CC=C(C=C3)O
Summary of the method: as §1

vemurafenib = compound: CCCS(=O)(=O)Nc1ccc(F)c(C(=O)c2c[nH]c3ncc(-c4ccc(Cl)cc4)cc23)c1F [vemurafenib]
Summary of the method: as §1

Measured: log2 fold change

JMJD4 (UniProt Q9H9V9)
inactive: [1] 0.154 | [2] 0.144 | [3] 0.125 | [4] 0.059 | barasertib 0.085

KSR2 (UniProt Q6VAB6)
inactive: [1] 0.024 | Nexturastat A 0.083 | givinostat 0.088

ITSN1 (UniProt Q15811)
inactive: [1] -0.295 | [2] -0.025 | Nexturastat A -0.193 | [4] 0.094 | [5] -0.037

KLHDC8B (UniProt Q8IXV7)
inactive: [1] -0.007 | [6] 0.068 | [3] -0.063 | vemurafenib -0.012 | [5] 0.114 | givinostat -0.08 | barasertib 0.111

JUN (UniProt P05412)
inactive: [1] -0.265 | [6] 0.114 | [5] -0.028 | givinostat -0.051 | barasertib -0.026

JMJD7 (UniProt P0C870)
inactive: [1] 0.064 | Nexturastat A 0.002 | givinostat -0.017 | barasertib 0.135

KLF16 (UniProt Q9BXK1)
inactive: [1] -0.039 | [2] -0.073 | [3] -0.024 | vemurafenib -0.146 | [4] -0.009 | [5] 0.031 | givinostat 0.047 | barasertib -0.157

KIAA0930 isoform 2 (UniProt Q6ICG6)
inactive: [1] -0.062 | [2] 0.031 | [3] -0.014 | Nexturastat A -0.065 | vemurafenib -0.003 | [4] -0.046 | [5] -0.126 | givinostat 0.019 | barasertib 0.083

KCNK5 (UniProt O95279)
inactive: [1] -0.114 | [2] 0.195 | [3] 0.084 | Nexturastat A 0.106 | [4] 0.1 | [5] 0.157 | givinostat -0.319 | barasertib 0.097

KATNAL1 (UniProt Q9BW62)
inactive: [1] -0.262 | [2] 0.109 | [3] -0.199 | Nexturastat A 0.107 | vemurafenib -0.005 | [4] 0.034 | barasertib 0.208

KHSRP (UniProt M0R3J3)
inactive: Nexturastat A -0.115

KLHL36 (UniProt Q8N4N3)
inactive: Nexturastat A 0.072 | [5] -0.041

KRT10, A0A1B0GVI3
inactive: [5] 0.116

2 entries drawn at random from the list so far, as already listed:
KCNK5 (UniProt O95279)
inactive: [1] -0.114 | [2] 0.195 | [3] 0.084 | Nexturastat A 0.106 | [4] 0.1 | [5] 0.157 | givinostat -0.319 | barasertib 0.097

KHSRP (UniProt M0R3J3)
inactive: Nexturastat A -0.115

Next part.

KIAA1755 (UniProt Q5JYT7)
inactive: [6] -0.012 | [2] -0.021 | [3] 0.024 | Nexturastat A 0.218 | vemurafenib -0.027 | [4] -0.019 | givinostat 0.007 | barasertib 0.002

KLHL17 (UniProt Q6TDP4)
inactive: Nexturastat A 0.228

KIFC1 (UniProt Q9BW19)
inactive: [6] -0.093 | Nexturastat A -0.154 | [5] -0.152

KRT87P (UniProt A6NCN2)
inactive: barasertib 0.078

KLHDC10 (UniProt Q6PID8)
inactive: [2] 0.061 | [4] 0.14

KDM3A (UniProt Q9Y4C1)
inactive: givinostat -0.078

KDELR3 (UniProt O43731)
inactive: [3] 0.135 | [5] -0.114 | givinostat 0.044 | barasertib 0.082

KNOP1 (UniProt Q1ED39)
inactive: [6] -0.006 | [2] 0.008 | [3] -0.022 | vemurafenib -0.121 | [4] -0.065 | [5] -0.088 | givinostat 0.279 | barasertib 0.094

KCTD7 (UniProt Q96MP8)
inactive: [2] -0.02 | [4] -0.046 | [5] 0.018 | barasertib 0.028

KMT2E (UniProt Q8IZD2)
inactive: Nexturastat A -0.086 | givinostat 0.021

JOSD1 (UniProt Q15040)
inactive: Nexturastat A 0.05 | givinostat 0.05

KLHL20 (UniProt Q9Y2M5)
inactive: [6] 0.028 | [2] -0.002 | vemurafenib 0.049 | [4] 0 | [5] -0.012 | givinostat 0.168

KIAA0754 (UniProt O94854)
inactive: [6] -0.11 | [2] -0.123 | Nexturastat A 0.163 | [4] -0.074 | barasertib 0.156

JCHAIN (UniProt P01591)
inactive: [5] -0.204 | barasertib 0.385

KIF4A (UniProt O95239)
inactive: vemurafenib -0.093

KLHL42 (UniProt Q9P2K6)
inactive: [2] -0.028 | Nexturastat A -0.238 | [4] 0.022 | barasertib 0.099

KAT6B (UniProt Q8WYB5)
inactive: [6] 0.021 | [2] -0.183 | vemurafenib -0.055 | [4] -0.04 | [5] -0.021 | givinostat 0.043 | barasertib -0.054

KIAA0040 (UniProt Q15053)
inactive: vemurafenib -0.081 | [5] 0.051 | givinostat 0.126

KDF1 (UniProt Q8NAX2)
inactive: [6] -0.054 | [3] -0.082 | givinostat 0

KIFAP3 (UniProt Q92845)
inactive: [3] -0.017 | Nexturastat A -0.051 | barasertib 0.289

KIZ (UniProt Q2M2Z5)
inactive: [6] 0.057 | [2] 0.003 | [3] -0.068 | [4] -0.181

KIF20A (UniProt O95235)
inactive: Nexturastat A 0.145

KRR1 (UniProt Q13601)
inactive: [3] -0.151

KCTD1 (UniProt Q719H9)
inactive: [3] 0.026 | Nexturastat A 0.088 | vemurafenib -0.08

KIF1B isoform 3 (UniProt O60333)
inactive: vemurafenib -0.244 | [5] -0.006

KIF21B (UniProt O75037)
inactive: [6] 0.05 | Nexturastat A 0.509 | givinostat 0.293

KALRN (UniProt O60229)
inactive: Nexturastat A 0.017 | givinostat 0.228 | barasertib 0.036

KIF21A (UniProt H0YI78)
inactive: [6] -0.001 | givinostat 0.447

KDM6A (UniProt O15550)
inactive: [6] 0.001 | [2] 0.01 | Nexturastat A -0.498 | vemurafenib -0.017 | [4] -0.118

ITSN2 (UniProt Q9NZM3)
inactive: givinostat -0.074
